This is one part of the list. Further columns of the screen follow, without active or inactive calls. Compounds called inactive in the main read-out are mostly missing here. Potencies come from curve fits of mixed quality, noted in brackets.

This test can be described thus: qHTS Assay for Modulators of Lamin A Splicing. Particulars: HeLa LMNA splicing GFP/RFP minigene ratio, 48 h. An outline of the steps: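 S3 HeLa cells stably expressing lamin A-EGFP splicing minigene plus DsRed2, 600 cells/well, 48 h compound exposure at 37C. Laser-scanning cytometry; analysed as GFP (500-530 nm)/RFP (575-640 nm) total intensity ratio; 0.5% DMSO vehicle.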

[1] abbreviates: measured here: GFP splicing reporter channel.
Setting [2] is: measured here: RFP viability control channel.

In the case of `Cc1ccc(S(=O)(=O)/N=S(/c2ccccc2)C(C)C)cc1` (stereo not given), the AC50 under setting [1] is 0.141 µM [rising, partial curve, poor fit].

Turning to `Cc1cc2c(cc1S(=O)(=O)CCC(=O)N1CCCC(C)C1)OCC(=O)N2` (stereo not given), under setting [1], the AC50 is 0.562 µM [rising, full curve, poor fit].

`CCCCN(CCCNC(=O)c1ccc(Sc2ccc(Cl)cc2)c(NC(C)=O)c1)c1ccccc1`: the AC50 under setting [1] was 7.94 µM [falling, partial curve, poor fit].

For the compound `Cc1ccc(NC(=O)CSCc2n[nH]c(=O)[nH]2)c(Br)c1`, the AC50 under setting [2] is 5.62 µM [falling, partial curve, poor fit].

For `C/C(=C\C(=O)c1ccncc1)Nc1ccccc1O`, the AC50 under setting [2] was 10 µM [rising, partial curve].

Turning to `COc1ccccc1-c1ccc2ncnc(NCc3ccccc3)c2c1`, the AC50 under setting [1] is 12.6 µM [falling, partial curve] and the AC50 under setting [2] is 15.8 µM [falling, partial curve].

On to `Cc1ccc(-c2csc3ncnc(-n4nc(C)cc4N)c23)cc1`, for which the AC50 under setting [2] is 7.08 µM [rising, partial curve].

With `COc1ccc(C2CC(c3ccccc3)=NN2C(=O)COC(=O)c2ccc(Cl)nc2)cc1` (stereo not given), the AC50 under setting [2] was 35.5 µM [rising, single point].

`O=C(O)CN1C(=O)/C(=C/C=C/c2ccccc2)SC1=S`: the AC50 under setting [1] was 0.0562 µM [rising, full curve, poor fit].

Consider `CCCc1cc(=O)n2[nH]c(NCc3ccc(OC)c(OC)c3)nc2n1`, for which the AC50 is, setting by setting: under setting [1], 0.02 µM [falling, full curve, poor fit]; under setting [2], 2 µM [falling, partial curve, poor fit].

Take `Cn1c(=O)c2c(nc(NCc3ccco3)n2C/C=C/c2ccccc2)n(C)c1=O`: the AC50 under setting [2] was 5.62 µM [rising, single point].

Regarding `CC(NC(=O)c1ccnc(C(C)(C)C)c1)c1ccccc1` (stereo not given), the concentration at half-maximal activity (AC50) under setting [2] was 31.6 µM [rising, single point].

As to `CCC(O)CNc1nc(-n2nc(C)cc2C)nc2sc3c(c12)CC(C)(C)OC3` (stereo not given), the AC50 under setting [2] is 22.4 µM [falling, partial curve, poor fit].

Turning to `COCCCNC(=O)c1cc(C(=O)Cc2ccccc2)c[nH]1`, the AC50 under setting [1] was 0.141 µM [rising, full curve, poor fit].

For `CCOC(=O)c1nnn(-c2nonc2N)c1COc1c(C=O)cccc1OC`, under setting [1], the AC50 is 3.16 µM [rising, single point].

`Cc1ccc(CNC(=O)c2ccc(CSCc3ccccc3Cl)o2)cc1`: under setting [1], the AC50 is 0.02 µM [falling, full curve, poor fit].

As for `CCSc1nc(-c2ccc(OC)cc2)n(-c2nc3ccccc3s2)n1`, the concentration at half-maximal activity (AC50) was 35.5 µM [rising, single point] under setting [1] and 35.5 µM [rising, single point] under setting [2].

For `COc1cccc(C(=O)N2CCN(Cc3ccccc3C(F)(F)F)CC2)c1`, the AC50 under setting [1] was 12.6 µM [rising, partial curve] and the AC50 under setting [2] was 3.98 µM [rising, full curve].

`CCC1=NN(C(=O)C(=O)Nc2ccc(OC)cc2)C(O)(C(F)(F)F)C1` (stereo not given): the AC50 was 25.1 µM [falling, single point] under setting [1] and 25.1 µM [falling, single point] under setting [2].

Take `CCOC(=O)Cn1c(=O)cc(C)c2ccccc21`: the AC50 under setting [1] was 35.5 µM [falling, single point].

On to `CCOC(=O)c1c(C(=O)OCC)c(C)n(CCc2ccc(OC)c(OC)c2)c1C`, for which the AC50 was 11.2 µM [rising, partial curve, poor fit] under setting [1] and 10 µM [rising, partial curve] under setting [2].

For `CCOc1ccc2nc(Nc3nc4ccc(NC(C)=O)cc4s3)sc2c1`, the AC50 under setting [1] was 1.12 µM [rising, full curve, poor fit].

For `N#Cc1cncc(-c2ccc3c(c2)OCCOCCOCCOCCOCCO3)n1`, the AC50 under setting [1] is 0.316 µM [falling, full curve, poor fit].

With `CC(C)CNc1nc(SCC(=O)Nc2ccccc2)nc(N2CCOCC2)n1`, the AC50 is 20 µM [falling, partial curve, poor fit] under setting [1] and 15.8 µM [falling, partial curve, poor fit] under setting [2].

As for `COc1cc(C2CC(=O)Nc3cc(C)c(C)cc32)cc(OC)c1OC` (stereo not given), the AC50 under setting [2] was 35.5 µM [rising, single point].

Take `CCOc1cc(OCC)cc(C(=O)NCCCN2CCOCC2)c1`: the AC50 under setting [1] is 0.794 µM [rising, single point].

Take `COc1ccc(-c2nn3c(-c4ccco4)nnc3s2)cc1OC`: the AC50 under setting [1] was 15.8 µM [falling, single point].

For `COc1ccc(Cn2nnnc2CN(Cc2cc3ccc(C)cc3[nH]c2=O)C2CCCC2)cc1`, the half-maximal activity concentration (AC50) under setting [1] was 35.5 µM [rising, partial curve, poor fit] and the AC50 under setting [2] was 17.8 µM [rising, single point].

`CCc1cc(-c2n[nH]c(=S)n2CC)cs1`: under setting [1], the AC50 is 14.1 µM [falling, single point].

On to `COc1ccccc1OC(=O)Oc1ccccc1OC`, for which the AC50 reads like this: under setting [1], 0.000891 µM [falling, full curve, poor fit]; under setting [2], 2.82 µM [rising, single point].

On to `CCOc1cc(C2C3=C(CCCC3=O)N(CCC(=O)O)C3=C2C(=O)CCC3)ccc1OS(=O)(=O)c1ccc(C)cc1`, for which the AC50 under setting [2] was 15.8 µM [falling, partial curve, poor fit].

Take `COc1cccc(Cn2c(=O)cnc3cncnc32)c1`: the AC50 was 5.62 µM [falling, full curve] under setting [1] and 5.62 µM [falling, full curve] under setting [2].

With `Cc1nc(N2CCN(c3ccccn3)CC2)c2c(C)c(C(=O)Nc3ccccc3F)sc2n1`, the AC50 under setting [2] was 1.26 µM [rising, full curve, poor fit].

Take `COc1cccc(CC2(CO)CCN(C(=O)NCCc3ccccc3)CC2)c1`: the AC50 under setting [2] is 0.2 µM [falling, full curve, poor fit].

With `COc1ccc(C(C)(C)C)cc1NC(=O)Nc1ccc2c(c1)OCO2`, the AC50 under setting [1] was 25.1 µM [falling, partial curve] and the AC50 under setting [2] was 35.5 µM [falling, single point].

Regarding `COc1ccc(NS(=O)(=O)c2cccc(NC(=O)c3ccc(S(=O)(=O)N4CCCCCC4)cc3)c2)cc1`, the AC50 was 0.562 µM [rising, full curve] under setting [1] and 1.12 µM [rising, full curve] under setting [2].

On to `O=c1ccnc(SCn2nnc3ccccc3c2=O)[nH]1`, for which the AC50 reads like this: under setting [1], 12.6 µM [falling, partial curve]; under setting [2], 5.01 µM [falling, partial curve].

Regarding `CCC(=O)NCCC1CCc2ccc3c(c21)CCO3` (stereo not given), the AC50 under setting [1] is 35.5 µM [falling, single point].

Regarding `O=C(/C=C/c1ccccc1)NC(NC(=S)Nc1ccc(Cl)cc1Cl)C(Cl)(Cl)Cl` (stereo not given), the AC50 under setting [2] was 22.4 µM [rising, single point].

On to `CC(=O)N1N=C(c2ccc(NS(C)(=O)=O)cc2)CC1c1ccc2nccnc2c1` (stereo not given), for which the AC50 under setting [1] is 0.178 µM [rising, full curve, poor fit].

Consider `Cc1nc(SCC(=O)NC(C)(C)C)c2c(-c3cccs3)csc2n1`, for which the AC50 under setting [1] was 15.8 µM [rising, single point] and the AC50 under setting [2] is 35.5 µM [rising, single point].

Consider `C/C(=N\NC(=O)CCc1c[nH]c2ccccc12)c1ccc([N+](=O)[O-])cc1`, for which the AC50 is 20 µM [rising, partial curve, poor fit] under setting [1] and 35.5 µM [rising, single point] under setting [2].

For the compound `COc1ccc(Nc2nc3c(C)cccn3c(=O)c2C=NCc2ccccc2)cc1`, the AC50 under setting [1] is 3.16 µM [falling, single point].

In the case of `COc1ccc(CCNC(=O)c2cc3sc(Cl)cc3n2C)cc1OC`, the AC50 under setting [2] was 25.1 µM [rising, single point].

Take `O=S1(=O)C=C(Sc2nc3ccccc3s2)c2ccccc21`: the AC50 is 3.16 µM [falling, full curve] under setting [1] and 6.31 µM [falling, full curve] under setting [2].

As to `COc1ccc(S(=O)(=O)N2CCC(n3cnc4cc(C(F)(F)F)ccc43)CC2)cc1`, the AC50 under setting [2] is 15.8 µM [rising, partial curve].

For `CC1(C)Cc2ccccc2C(/C(=N\Nc2cccc(Cl)c2)C(N)=O)=N1`, the AC50 is, setting by setting: under setting [1], 35.5 µM [falling, single point]; under setting [2], 35.5 µM [falling, single point].

As to `CC1(C)N=C(N)N=C(N)N1c1ccccc1`, under setting [2], the AC50 was 22.4 µM [rising, single point].

`COCc1cc(C)nc(SCC(=O)c2ccc(O)c(O)c2)c1C#N`: under setting [2], the AC50 is 35.5 µM [rising, single point].

Take `CCC1=Nc2cc(C(=O)NCc3ccccc3Cl)ccc2Sc2ccc(C)cc21`: the AC50 under setting [2] was 5.62 µM [rising, partial curve, poor fit].

Consider `Cc1nc(Oc2cccc(Cl)c2)c2oc3ccccc3c2n1`, for which the AC50 under setting [2] is 22.4 µM [rising, single point].

In the case of `Cc1ccc(Cl)cc1-n1ncc2c(NC3CCCCC3)ncnc21`, the AC50 under setting [1] was 0.0112 µM [falling, full curve, poor fit].

As to `CCOC(=O)c1c(C)[nH]c(CCC(=O)Nc2c(Cl)cc(OC)cc2OC)c1C`, the AC50 under setting [2] is 3.16 µM [rising, partial curve].

As to `CC(C)N1CCN(Cc2cccc(-n3cccn3)c2)CC1CCO` (stereo not given), the AC50 under setting [2] was 0.316 µM [falling, full curve].

As to `COc1ccc(-c2nc(C#N)c(N3CCCCCC3)o2)cc1`, the AC50 under setting [2] was 31.6 µM [rising, single point].

With `COc1ccccc1-c1cc(N)n(S(=O)(=O)c2ccc(F)c(C)c2)n1`, the AC50 under setting [2] was 35.5 µM [rising, single point].

Regarding `CC(C)(C)OC(=O)N[C@@H](Cc1ccccc1)c1nnc(S(=O)(=O)Cc2ccccc2)o1`, the AC50 is 11.2 µM [falling, partial curve] under setting [1] and 25.1 µM [falling, single point] under setting [2].

These data come from PubChem BioAssay AID1487 (National Center for Advancing Translational Sciences (NCATS), 2009).
